Experiment: Phase 1 dose-expansion lymphoma cohort: safety and tolerability
Format: in vivo, human
Conditions: sixteen subjects
Description: The following phase 1 study was designed to evaluate the safety and pharmacokinetics of Compound A administered as a continuous daily dosing regimen in an expansion cohort of subjects with relapsed or refractory lymphoma.
This was a Phase 1, open-label, non-randomized trial of Compound A given orally as a single agent in subjects with lymphoma. The maximum tolerated dose expansion cohort planned enrollment was at least 15 subjects.
The primary objective was to determine the safety and tolerability of Compound A administered orally, twice daily, as a continuous daily dosing regimen to subjects with relapsed or refractory lymphoma.
The key eligibility include the following: • Histologically confirmed diagnosis of relapsed or refractory lymphoma • Measureable disease • Adequate bone marrow function defined as: • ANC≧1000/mm3 (chronic lymphocytic leukemia with ANC≧500/mm3) • Platelets≧30,000/mm3 • Hemoglobin≧8 g/dL • Availability of archival or fresh tumor tissue • No prior therapy with a selective PI3K inhibitor • Written informed consent.

## CCn1c(=O)c(-c2ccn[nH]2)cc2c(C)nc(N)nc21 [Compound A, 2-amino-8-ethyl-4-methyl-6-(1H-pyrazol-5-yl)pyrido[2,3-d]pyrimidin-7(8H)-one]
  Median duration of therapy, weeks (range): 9 (1-66) weeks

From patent US20140296265A1, “Method of Treating Lymphoma Using Pyridopyrimidinone Inhibitors of PI3K/mTOR” (Sanofi, priority 2011, published 2014)
